# Reference: the supplement of paper PMC8975748
# Structures can show the parent of a compound that is named as a salt. ± gives the standard deviation of the averaged measurements. The list shows a part of the results. Values are raw readings; no control value is given beside them.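 A single yeast strain with four plasmids, each encoding a fluorescent protein and an amino-acid or uracil biosynthesis gene, seeds the community. Stochastic plasmid loss yields mixed prototroph and auxotroph subpopulations. Fixed cells were counted via automated confocal fluorescence imaging; DMSO-treated wells were the vehicle reference.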
# Test system: Saccharomyces cerevisiae BY4741 SeMeCo community
# Test: imaged cell count per well (cells); higher = more cells
# Conditions: 10 µM; 24 h; SM minimal medium
# Procedure: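 Same SeMeCo high-content imaging drug screen: Selleck FDA-approved drugs at 10 µM, 24 h in SM medium, 384-well plates, 3 replicates.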
row,SMILES,imaged cell count per well
1,CC[C@H]1OC(=O)[C@H](C)[C@@H](O[C@H]2C[C@@](C)(OC)[C@@H](O)[C@H](C)O2)[C@H](C)[C@@H](O[C@@H]2O[C@H](C)C[C@H](N(C)C)[C@H]2O)[C@](C)(O)C[C@@H](C)[C@@H]2N[C@@H](COCCOC)O[C@H]([C@H]2C)[C@]1(C)O [Dirithromycin],27200 ± 7500
2,CCc1c(C)[nH]c2c1C(=O)C(CN1CCOCC1)CC2 (configuration not stated) [Molindone hydrochloride],27100 ± 6200
3,Oc1c(I)cc(Cl)c2cccnc12 [Clioquinol],627 ± 690
4,CN1CCC(=C2c3ccccc3CCc3sccc32)CC1 [Pizotifen Malate],22000 ± 760
5,O=c1[nH]cnc2c1ncn2[C@H]1CC[C@@H](CO)O1 [Didanosine],25400 ± 3000
6,CC1=C(C(=O)O)N2C(=O)[C@@H](NC(=O)[C@H](N)c3ccccc3)[C@H]2SC1 [Cephalexin],30200 ± 6200
7,NS(=O)(=O)c1cc(C(=O)O)c(NCc2ccco2)cc1Cl [Furosemide],25000 ± 1500
8,CC1(C)S[C@@H]2[C@H](NC(=O)COc3ccccc3)C(=O)N2[C@H]1C(=O)O [Penicillin V potassium salt],32200 ± 2500
9,CO/N=C(\C(=O)N[C@@H]1C(=O)N2C(C(=O)OC(C)OC(C)=O)=C(COC(N)=O)CS[C@H]12)c1ccco1 (some centres not stated) [Cefuroxime axetil],20800 ± 3900
10,CO[C@H]1C[C@@H]2CC[C@@H](C)[C@@](O)(O2)C(=O)C(=O)N2CCCC[C@H]2C(=O)O[C@H]([C@H](C)C[C@@H]2CC[C@@H](OC(=O)C(C)(CO)CO)[C@H](OC)C2)CC(=O)[C@H](C)/C=C(\C)[C@@H](O)[C@@H](OC)C(=O)[C@H](C)C[C@H](C)/C=C/C=C/C=C/1C,7520 ± 1200
11,CC[C@@]1(O)C(=O)OCc2c1cc1n(c2=O)Cc2cc3cc(O)ccc3nc2-1 [(S)-10-Hydroxycamptothecin],25300 ± 3600
12,Nc1ccc(S(=O)(=O)NC(=O)c2ccccc2)cc1 [Sulfabenzamide],21000 ± 9800
13,CC[N+](CC)(CC)CCOc1cccc(OCC[N+](CC)(CC)CC)c1OCC[N+](CC)(CC)CC [Gallamine Triethiodide],19200 ± 5000
14,C[N+]1(C)CCC(OC(=O)C(O)(c2ccccc2)C2CCCC2)C1 (configuration not stated) [Glycopyrrolate],25600 ± 4000
15,COCCCN1CCC(NC(=O)c2cc(Cl)c(N)c3c2OCC3)CC1 [Prucalopride],16200 ± 6700
16,Cc1ncc([N+](=O)[O-])n1CC(C)O (configuration not stated) [Secnidazole],23300 ± 4900
17,CO/N=C(\C(=O)N[C@@H]1C(=O)N2C(C(=O)[O-])=C(C[n+]3cccc4c3CCC4)CS[C@H]12)c1csc(N)n1 [Cefpirome sulfate],21900 ± 9500
18,COc1ccc([C@H]2CNC(=O)C2)cc1OC1CCCC1 [S- (+)-Rolipram],24200 ± 7800
19,Cc1c(-c2ccccc2)oc2c(C(=O)OCCN3CCCCC3)cccc2c1=O [Flavoxate HCl],22100 ± 4900
20,COc1ccc(CC2c3cc(OC)c(OC)cc3CC[N+]2(C)CCC(=O)OCCCCCOC(=O)CC[N+]2(C)CCc3cc(OC)c(OC)cc3C2Cc2ccc(OC)c(OC)c2)cc1OC (configuration not stated) [Atracurium Besylate],25100 ± 1500
21,CC(C)C(=O)c1c(C(C)C)nn2ccccc12 [Ibudilast],22800 ± 6700
22,CCOC(=O)C1=C[C@]2(CC)CCCN3CCc4c(n1c1ccccc41)[C@@H]32 [Vinpocetine],23600 ± 6000
23,CCCCN(CCCC)CC(O)c1cc(Cl)cc2c1-c1ccc(Cl)cc1/C2=C/c1ccc(Cl)cc1 (configuration not stated) [Lumefantrine],22300 ± 3900
24,Nc1ccc(S(=O)(=O)Nc2nccs2)cc1 [Sulfathiazole],26300 ± 5400
25,CCCCNC(=O)NS(=O)(=O)c1ccc(C)cc1 [Tolbutamide],22500 ± 6200
26,Cc1onc(-c2c(F)cccc2Cl)c1C(=O)N[C@@H]1C(=O)N2[C@@H]1SC(C)(C)[C@@H]2C(=O)O [Flucloxacillin sodium],20200 ± 10000
27,CCN1CCN(C(=O)N[C@@H](C(=O)N[C@@H]2C(=O)N3[C@@H]2SC(C)(C)[C@@H]3C(=O)O)c2ccccc2)C(=O)C1=O [Piperacillin Sodium],22200 ± 4600

# Two records picked at random from those above:
row,SMILES,imaged cell count per well
16,Cc1ncc([N+](=O)[O-])n1CC(C)O (configuration not stated) [Secnidazole],23300 ± 4900
21,CC(C)C(=O)c1c(C(C)C)nn2ccccc12 [Ibudilast],22800 ± 6700
